US12521398B2, “Composition for treating synucleinopathies” (STANDIGM INC., priority 2019, dated 2026)
At least one structure is not confirmed: it was looked up by name or label, or the drawing left a doubt.

Tests used:
α-synuclein = biological target: T1, α-synuclein (Homo sapiens, UniProt P37840); assay: Dual chamber assay, cell-to-cell transmission of α-synuclein in SH-SY5Y cells; type: cell-based; settings: 5 μM, 12 hours, DMSO control
T1 construct: expressed in transfected cells; host or cells: SH-SY5Y
Description: A slide glass was included in the plate to stain the cells after the cell culture.
In an insert well of the 12-well plate as the apical chamber, an SH-SY5Y cell line in which α-synuclein was over-expressed was seeded at a density of 4×10^4 cells/well, and in the 12-well plate as the basal chamber, an SH-SY5Y cell line in which α-synuclein was not over-expressed was seeded at a density of 4×10^4 cells/well and they were incubated at a constant temperature. The next day, the insert well was transferred to a place where the 12-well plate was placed to form a dual chamber. Thereafter, the chamber was treated with DMSO or 5 μM efavirenz and incubated at a constant temperature for 12 hours. The SH-SY5Y cells in the plate in which the chamber was treated with DMSO were used as the control. Then, the SH-SY5Y cells in the plate were subjected to immunostaining and observed using a confocal microscope. During the immunostaining, α-synuclein was stained red, and the nuclei were stained blue. Also, fluorescence intensities of α-synuclein in the control and the cells treated with efavirenz were compared. A scale bar represents 20 μm. **P<0.01, ***P<0.001 against the control. […] Also, when the fluorescence intensities of the immunostained α-synuclein were compared, the fluorescence intensity in the cells treated with efavirenz decreased by approximately 80%, compared with that of the control (FIG. 2A). […]

aggregated α-synuclein = assay: Immunohistochemical staining of pSer129 α-Syn in A53T mice injected with aggregated α-synuclein; type: in vivo, mouse; settings: 123 mg/kg intraperitoneally once a day for 4 weeks, cortex, striatum, substantia nigra
A53T α-synuclein = biological target: T2, A53T α-synuclein (Homo sapiens, UniProt P37840, A53T); assay: Co-culture assay of A53T EGFP and A53T mcherry SH-SY5Y cells, aggregation of α-synuclein; type: cell-based; settings: 5 μM, 5 days co-culture with 50 μM retinoic acid, DMSO control
T2 construct: expressed in transfected cells; host or cells: SH-SY5Y (lentiviral transduction)
Description: A degeneration process of converting monomeric α-synuclein into aggregates may mainly cause Parkinson's disease. Therefore, it was tested whether efavirenz is involved in the propagation process of the over-expressed monomeric A53T α-synuclein to adjacent cells, which is converting the over-expressed monomeric α-synuclein into aggregates.
For this purpose, an SH-SY5Y cell line (A53T EGFP cells) in which EGFP-labeled A53T α-synuclein was over-expressed and an SH-SY5Y cell line (A53T mcherry cells) in which mcherry-labeled A53T α-synuclein was over-expressed were prepared using a lentivirus. Thereafter, the A53T EGFP cells and the A53T mcherry cells were mixed to prepare co-cultured cells. […] At 5 days of the co-culturing, the aggregated α-synuclein (inclusion body-positive cells) was confirmed using a confocal microscope (the rightmost image of fluorescence images shown in FIG. 3A). […] In the rightmost image of the fluorescence images of FIG. 3A, dots indicated in yellow represent the combining of mcherry and EGFP signals in the cells. In the rightmost image of the fluorescence images of FIG. 3A (a diagram in which EGFP+mcherry signals were combined), the dots indicated in yellow were counted to calculate ratios of the dots to the whole cells, and then plotted on a bar graph. […]

In the case of `O=C1Nc2ccc(Cl)cc2[C@@](C#CC2CC2)(C(F)(F)F)O1` [efavirenz, (4S)-6-chloro-(cyclopropylethynyl)-1,4-dihydro-4-(trifluoromethyl)-2H-3,1-benzoxazin-2-one], the “cell-to-cell transmission of α-synuclein compared with the control (fluorescence image)” value (α-synuclein) is reported as “remarkably lowered”, the “aggregated α-synuclein (pSer129 α-Syn marker) present in the nerve tissues compared with the control” value (aggregated α-synuclein) is reported as “remarkably lowered” and the “aggregated α-synuclein compared with the control cells” value (A53T α-synuclein) is reported as “remarkably decreased”. The “distribution of α-synuclein compared with the control cells” value (A53T α-synuclein) was “remarkably decreased”.
